For six molecules, binding results are on record in article doi:10.1101/2024.11.05.622030.

Where two headings read alike, the source gives them in different places. These are yes or no findings as the source states them, for the method shown. Binding seen in cells or lysates may run through a third protein. Some binding calls cover weakened binding; strength is not graded here. For some assays here: Tags and fused reporters may be left off the sequences shown.

Holding throughout (test): co-IP
For experiment [1], the target named is T1, GSDMD-mCherry (full-length GSDMD) (human) (UniProt P57764).
T1 sequence: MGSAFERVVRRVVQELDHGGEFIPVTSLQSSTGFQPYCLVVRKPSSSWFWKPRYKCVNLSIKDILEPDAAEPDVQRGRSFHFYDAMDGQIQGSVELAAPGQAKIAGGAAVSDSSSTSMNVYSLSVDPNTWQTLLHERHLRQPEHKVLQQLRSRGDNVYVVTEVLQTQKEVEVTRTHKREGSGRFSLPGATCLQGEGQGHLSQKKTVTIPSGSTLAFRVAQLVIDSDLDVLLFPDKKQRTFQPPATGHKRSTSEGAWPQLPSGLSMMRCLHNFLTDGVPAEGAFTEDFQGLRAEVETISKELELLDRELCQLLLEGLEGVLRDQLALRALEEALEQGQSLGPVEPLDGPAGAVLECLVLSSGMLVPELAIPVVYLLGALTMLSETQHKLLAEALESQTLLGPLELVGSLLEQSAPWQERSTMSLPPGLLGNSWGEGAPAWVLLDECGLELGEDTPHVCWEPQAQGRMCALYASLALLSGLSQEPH

Experiment [2] deals with T2, GSDMD N-terminus (residues 1-144)-mCherry (human) (UniProt P57764).
T2 sequence: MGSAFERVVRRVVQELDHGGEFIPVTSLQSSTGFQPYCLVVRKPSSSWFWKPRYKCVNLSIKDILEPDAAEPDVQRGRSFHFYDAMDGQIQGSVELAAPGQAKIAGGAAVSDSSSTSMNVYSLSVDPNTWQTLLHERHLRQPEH

The target of experiment [3] is T3, GSDMD N-terminus (residues 1-176)-mCherry (human) (UniProt P57764).
T3 sequence: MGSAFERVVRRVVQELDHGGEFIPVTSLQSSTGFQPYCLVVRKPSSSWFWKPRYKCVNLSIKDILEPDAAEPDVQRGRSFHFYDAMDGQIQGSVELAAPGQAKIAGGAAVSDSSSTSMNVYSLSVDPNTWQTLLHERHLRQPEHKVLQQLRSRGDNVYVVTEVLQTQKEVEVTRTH

Experiment [4] deals with mCherry-tagged RING1 (human) (UniProt Q06587).
Experiment [5] deals with T1, GSDMD-mCherry (full-length GSDMD) (human). This is another data set of the same source.

“RING1 (1-88)-GFP (from UniProt Q06587 1-88) (domain or fragment)”: the binding entry in experiment [1] is reported as “no binding”. Take “RING1 (1-229) truncation-GFP (from UniProt Q06587 1-229) (domain or fragment)”: the binding result in experiment [1] was “binds”. For “RING1 (89-229)-GFP (from UniProt Q06587 89-229) (domain or fragment)”, the binding result in experiment [1] was “no binding”. RING1-GFP (from UniProt Q06587 1-406): the binding entry in experiment [2], in experiment [1] and in experiment [3] was “binds” in each case.

B1: HA-tagged GSDMD (Gasdermin D) (protein, UniProt P57764 1-484)
chain: MGSAFERVVRRVVQELDHGGEFIPVTSLQSSTGFQPYCLVVRKPSSSWFWKPRYKCVNLSIKDILEPDAAEPDVQRGRSFHFYDAMDGQIQGSVELAAPGQAKIAGGAAVSDSSSTSMNVYSLSVDPNTWQTLLHERHLRQPEHKVLQQLRSRGDNVYVVTEVLQTQKEVEVTRTHKREGSGRFSLPGATCLQGEGQGHLSQKKTVTIPSGSTLAFRVAQLVIDSDLDVLLFPDKKQRTFQPPATGHKRSTSEGAWPQLPSGLSMMRCLHNFLTDGVPAEGAFTEDFQGLRAEVETISKELELLDRELCQLLLEGLEGVLRDQLALRALEEALEQGQSLGPVEPLDGPAGAVLECLVLSSGMLVPELAIPVVYLLGALTMLSETQHKLLAEALESQTLLGPLELVGSLLEQSAPWQERSTMSLPPGLLGNSWGEGAPAWVLLDECGLELGEDTPHVCWEPQAQGRMCALYASLALLSGLSQEPH
B1: the binding entry in experiment [4] is recorded as “binds”.

B2: C-terminal domain of RING1 (230-406)-GFP (domain or fragment, UniProt Q06587 230-406)
chain: EDSGDRGGTLGGGTLGPPSPPGAPSPPEPGGEIELVFRPHPLLVEKGEYCQTRYVKTTGNATVDHLSKYLALRIALERRQQQEAGEPGGPGGGASDTGGPDGCGGEGGGAGGGDGPEEPALPSLEGVSEKQYTIYIAPGGGAFTTLNGSLTLELVNEKFWKVSRPLELCYAPTKDPK
As to B2, the binding result in experiment [5] was “binds weakly”.
